Experimental data published in the supplement of paper PMC4604168 (melanoma cell lines).
Some of the results follow. Many values rest on one well or one pass, so single values are uncertain.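 Imaging used 1,536-well plates; nuclei positive for cleaved PARP by antibody were divided by total DNA-stained nuclei to yield the apoptosis fraction. Doses for screening kept most cells viable, and cell lines differ markedly in resting and induced cleaved-PARP levels.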

Tests used:
Experiment in all cases: cleaved PARP positive nuclei fraction relative to DMSO control; melanoma cells; higher = more apoptosis
Conditions in all cases: library dose: low library concentration; 72 h
[1] = system: 501Mel
[2] = system: A101D
[3] = system: A2058
[4] = system: A375
[5] = system: C32
[6] = system: CBRC008 (line from a melanoma biopsy)
[7] = system: CBRC013 (line from a melanoma biopsy)
[8] = system: CBRC014 (line from a melanoma biopsy)
[9] = system: CBRC016 (line from a melanoma biopsy)
[10] = system: CBRC017 (line from a melanoma biopsy)
[11] = system: COLO792
[12] = system: COLO800
[13] = system: COLO829
[14] = system: G361
[15] = system: IPC-298
[16] = system: IST-MEL1
[17] = system: LB2518-MEL
[18] = system: LOXIMVI
[19] = system: MEL-HO
[20] = system: CBRC034 (line from a melanoma biopsy)

| Compound | cleaved PARP positive nuclei fraction [1] [%] | cleaved PARP positive nuclei fraction [2] [%] | cleaved PARP positive nuclei fraction [3] [%] | cleaved PARP positive nuclei fraction [4] [%] | cleaved PARP positive nuclei fraction [5] [%] | cleaved PARP positive nuclei fraction [6] [%] | cleaved PARP positive nuclei fraction [7] [%] | cleaved PARP positive nuclei fraction [8] [%] | cleaved PARP positive nuclei fraction [9] [%] | cleaved PARP positive nuclei fraction [10] [%] | cleaved PARP positive nuclei fraction [11] [%] | cleaved PARP positive nuclei fraction [12] [%] | cleaved PARP positive nuclei fraction [13] [%] | cleaved PARP positive nuclei fraction [14] [%] | cleaved PARP positive nuclei fraction [15] [%] | cleaved PARP positive nuclei fraction [16] [%] | cleaved PARP positive nuclei fraction [17] [%] | cleaved PARP positive nuclei fraction [18] [%] | cleaved PARP positive nuclei fraction [19] [%] | cleaved PARP positive nuclei fraction [20] [%] |
| --- | --- | --- | --- | --- | --- | --- | --- | --- | --- | --- | --- | --- | --- | --- | --- | --- | --- | --- | --- | --- |
| NCC(=O)Nc1ccc(-n2nc(C(F)(F)F)cc2-c2ccc3c(ccc4ccccc43)c2)cc1 + CN(NC(=O)CC(=O)NN(C)C(=S)c1ccccc1)C(=S)c1ccccc1 [STA4783] (first compound 1 µM, partner dose 0.006 µM) | 947 | 83.3 | 75.5 | 8990 | 179 | 1760 | 149 | 623 | 178 | 264 | 116 | 104 | 64 | 125 | 112 | 95.6 | 434 | 125 | 161 | – |
| COc1ccc(-c2ccc3c(N4CCOCC4)nc(N4C[C@@H](C)O[C@@H](C)C4)nc3n2)cc1CO + COc1cc(N2CCC(N3CCN(C)CC3)CC2)ccc1Nc1ncc(Cl)c(Nc2ccccc2S(=O)(=O)C(C)C)n1 [NVP-TAE684] (first compound 0.02 µM, partner dose 0.08 µM) | 176 | 185 | 313 | 318 | 74.9 | – | 90.9 | 94.2 | 53.6 | 83.4 | 152 | 106 | 81.4 | 153 | 79.8 | 90.2 | 88.9 | 30 | – | 131 |
| COC(=O)c1sccc1S(=O)(=O)Nc1ccc(Nc2ccccc2)cc1OC + CCN(CC)CCCCNc1ncc2cc(-c3cc(OC)cc(OC)c3)c(NC(=O)NC(C)(C)C)nc2n1 [PD173074] (first compound 1 µM, partner dose 0.1 µM) | 157 | 183 | 92.8 | 119 | 33.1 | – | 194 | 104 | 93.5 | 107 | 302 | 74.6 | 84.8 | 78.1 | 105 | 45.1 | 163 | 44.8 | – | 89.6 |
| O=C(O)c1ccc(-c2c[nH]c3ncc(-c4ccccc4)cc23)cc1C1CCCC1 + CN(NC(=O)CC(=O)NN(C)C(=S)c1ccccc1)C(=S)c1ccccc1 [STA4783] (first compound 0.16 µM, partner dose 0.006 µM) | 344 | 118 | 186 | 3450 | 164 | 1570 | 133 | 567 | 151 | 214 | 136 | 69.1 | 175 | 175 | 94.1 | 242 | 140 | 67.7 | 293 | – |
| NCC(=O)Nc1ccc(-n2nc(C(F)(F)F)cc2-c2ccc3c(ccc4ccccc43)c2)cc1 + CCN(CC)CCCCNc1ncc2cc(-c3cc(OC)cc(OC)c3)c(NC(=O)NC(C)(C)C)nc2n1 [PD173074] (first compound 1 µM, partner dose 0.1 µM) | 353 | 58.6 | 69.6 | 343 | 72.7 | – | 222 | 89.9 | 126 | 114 | 144 | 65.3 | 83 | 101 | 304 | 56.4 | 79.4 | 38.5 | – | 81.7 |
| O=C(O)c1ccc(-c2c[nH]c3ncc(-c4ccccc4)cc23)cc1C1CCCC1 + N#Cc1c(O)c2c(-c3ccc(-c4ccccc4O)cc3)csc2[nH]c1=O [A769662] (first compound 0.16 µM, partner dose 2 µM) | 50.2 | 52.6 | 42.7 | 128 | 265 | – | 41 | 216 | 108 | 101 | 87.8 | 132 | 82.7 | 65.2 | 51 | 115 | 76.9 | 41.1 | – | 46.7 |
| CN(NC(=O)CC(=O)NN(C)C(=S)c1ccccc1)C(=S)c1ccccc1 + COc1cc2c(Oc3ccc4[nH]c(C)cc4c3F)ncnc2cc1OCCCN1CCCC1 [cediranib] (first compound 0.006 µM, partner dose 0.4 µM) | 515 | 104 | 162 | 6360 | 356 | 2750 | 118 | 443 | 267 | 199 | 176 | 99.1 | 93.8 | 71.8 | 46.3 | 113 | 273 | 74.7 | 377 | – |
| Cn1cc(/C=C2\C(=O)Nc3cccnc32)c2ccccc21 + O=c1cc(-c2cccc3c2Sc2ccccc2S3)oc(N2CCOCC2)c1 [KU55933] (first compound 0.4 µM, partner dose 1 µM) | 72.6 | 218 | 45.3 | 70.6 | 194 | – | 131 | 98.6 | 77 | 91.1 | 74.4 | 212 | 130 | 170 | 174 | 44.5 | 219 | 30.7 | – | 124 |
| Oc1nc(-c2ccc(C(F)(F)F)cc2)nc2c1CSCC2 + COc1cc(N2CCC(N3CCN(C)CC3)CC2)ccc1Nc1ncc(Cl)c(Nc2ccccc2S(=O)(=O)C(C)C)n1 [NVP-TAE684] (first compound 2 µM, partner dose 0.08 µM) | 72.5 | 128 | 405 | 52.4 | 44.4 | – | 546 | 80.3 | 58.8 | 43.3 | 42.4 | 91.2 | 185 | 63.2 | 112 | 85.8 | 245 | 50.8 | – | 93.1 |
| O=C(O)c1ccc(-c2c[nH]c3ncc(-c4ccccc4)cc23)cc1C1CCCC1 + COc1cc2c(Oc3ccc4[nH]c(C)cc4c3F)ncnc2cc1OCCCN1CCCC1 [cediranib] (first compound 0.16 µM, partner dose 0.4 µM) | 90.1 | 41.7 | 138 | 165 | 89.5 | 130 | 111 | 93.4 | 269 | 106 | 128 | 99.7 | 73.1 | 86.1 | 62.1 | 158 | 90.5 | 62.7 | 99.4 | – |
| Oc1nc(-c2ccc(C(F)(F)F)cc2)nc2c1CSCC2 + Cn1cc(/C=C2\C(=O)Nc3cccnc32)c2ccccc21 [GW441756] (first compound 2 µM, partner dose 0.4 µM) | 85.6 | 57.2 | 75.8 | 254 | 99.4 | – | 141 | 82.5 | 89.9 | 70.8 | 240 | 59.9 | 95 | 74 | 62.2 | 83.2 | 91.5 | 102 | – | 94.3 |
| N#Cc1c(O)c2c(-c3ccc(-c4ccccc4O)cc3)csc2[nH]c1=O + Oc1cc(-c2nc(-c3ccccc3)[nH]c2-c2ccncc2)ccc1Cl [L779450] (first compound 2 µM, partner dose 0.2 µM) | 42.3 | 124 | 110 | 15.9 | 70 | – | 125 | 93.8 | 83 | 89.9 | 59.3 | 112 | 82.5 | 68.1 | 153 | 180 | 172 | 116 | – | 40.7 |
| O=S(=O)(c1ccccc1)N(CC(F)(F)F)c1ccc(C(O)(C(F)(F)F)C(F)(F)F)cc1 + Oc1cc(-c2nc(-c3ccccc3)[nH]c2-c2ccncc2)ccc1Cl [L779450] (first compound 1.4 µM, partner dose 0.2 µM) | 119 | 266 | 55.6 | 143 | 146 | – | 144 | 125 | 101 | 62.7 | 54.4 | 84.3 | 144 | 115 | 50.8 | 114 | 179 | 78.7 | – | 97.1 |
| COc1ccc(COc2ccc(Cc3cnc(N)nc3N)cc2OC)cc1 + O=C(O)C(=O)Nc1sc2c(c1C(=O)O)CCNC2 [TCS401] (first compound 1 µM, partner dose 1.66667 µM) | 165 | 41.4 | 41 | 120 | 96.7 | – | 57.1 | 73.5 | 36.3 | 83 | 100 | 79.4 | 96.9 | 90.2 | 41.6 | 91 | 164 | 69.2 | – | 253 |
| COc1ccc2c(c1)CCC1C2CCC2(C)C(NCCCCCCN3C(=O)C=CC3=O)CCC12 (centres undefined) + COc1ccc(COc2ccc(Cc3cnc(N)nc3N)cc2OC)cc1 [GW2580] (first compound 0.4 µM, partner dose 1 µM) | 67.5 | 232 | 42.7 | 293 | 293 | – | 158 | 97.2 | 179 | 77.6 | 127 | 78 | 121 | 129 | 113 | 147 | 275 | 103 | – | 97.5 |
| O=S(=O)(c1ccccc1)N(CC(F)(F)F)c1ccc(C(O)(C(F)(F)F)C(F)(F)F)cc1 + O=C(O)C(=O)Nc1sc2c(c1C(=O)O)CCNC2 [TCS401] (first compound 1.4 µM, partner dose 1.66667 µM) | 46.6 | 51.9 | 41 | 177 | 136 | – | 41.9 | 99.2 | 75.7 | 94 | 213 | 93.6 | 63.6 | 52.1 | 181 | 45 | 184 | 939 | – | 90.4 |
| CN(C)S(=O)(=O)c1ccc2c(c1)/C(=C/c1cc3c([nH]1)CCCC3)C(=O)N2 + O=C(O)c1ccc(-c2c[nH]c3ncc(-c4ccccc4)cc23)cc1C1CCCC1 [GSK650394] (first compound 0.4 µM, partner dose 0.16 µM) | 86.4 | 19.2 | 26.4 | 44.5 | 77.2 | 93.5 | 92.3 | 79.2 | 79.6 | 88.6 | 102 | 145 | 63.2 | 79.5 | 99 | 111 | 100 | 75.8 | 115 | – |
| Cc1cc([N+](=O)[O-])ccc1NS(=O)(=O)c1cc(Cl)ccc1Cl + Oc1nc(-c2ccc(C(F)(F)F)cc2)nc2c1CSCC2 [XAV939] (first compound 1 µM, partner dose 2 µM) | 72.2 | 65.2 | 70.4 | 50.9 | 101 | – | 148 | 148 | 1880 | 925 | 87.4 | 130 | 83.8 | 317 | 146 | 102 | 82.2 | 153 | – | 200 |

Shown as tab-separated lines: part of the list above
Compound	cleaved PARP positive nuclei fraction [1] [%]	cleaved PARP positive nuclei fraction [2] [%]	cleaved PARP positive nuclei fraction [3] [%]	cleaved PARP positive nuclei fraction [4] [%]	cleaved PARP positive nuclei fraction [5] [%]	cleaved PARP positive nuclei fraction [6] [%]	cleaved PARP positive nuclei fraction [7] [%]	cleaved PARP positive nuclei fraction [8] [%]	cleaved PARP positive nuclei fraction [9] [%]	cleaved PARP positive nuclei fraction [10] [%]	cleaved PARP positive nuclei fraction [11] [%]	cleaved PARP positive nuclei fraction [12] [%]	cleaved PARP positive nuclei fraction [13] [%]	cleaved PARP positive nuclei fraction [14] [%]	cleaved PARP positive nuclei fraction [15] [%]	cleaved PARP positive nuclei fraction [16] [%]	cleaved PARP positive nuclei fraction [17] [%]	cleaved PARP positive nuclei fraction [18] [%]	cleaved PARP positive nuclei fraction [19] [%]	cleaved PARP positive nuclei fraction [20] [%]
Oc1nc(-c2ccc(C(F)(F)F)cc2)nc2c1CSCC2 + COc1cc(N2CCC(N3CCN(C)CC3)CC2)ccc1Nc1ncc(Cl)c(Nc2ccccc2S(=O)(=O)C(C)C)n1 [NVP-TAE684] (first compound 2 µM, partner dose 0.08 µM)	72.5	128	405	52.4	44.4	–	546	80.3	58.8	43.3	42.4	91.2	185	63.2	112	85.8	245	50.8	–	93.1
O=C(O)c1ccc(-c2c[nH]c3ncc(-c4ccccc4)cc23)cc1C1CCCC1 + COc1cc2c(Oc3ccc4[nH]c(C)cc4c3F)ncnc2cc1OCCCN1CCCC1 [cediranib] (first compound 0.16 µM, partner dose 0.4 µM)	90.1	41.7	138	165	89.5	130	111	93.4	269	106	128	99.7	73.1	86.1	62.1	158	90.5	62.7	99.4	–
Oc1nc(-c2ccc(C(F)(F)F)cc2)nc2c1CSCC2 + Cn1cc(/C=C2\C(=O)Nc3cccnc32)c2ccccc21 [GW441756] (first compound 2 µM, partner dose 0.4 µM)	85.6	57.2	75.8	254	99.4	–	141	82.5	89.9	70.8	240	59.9	95	74	62.2	83.2	91.5	102	–	94.3
N#Cc1c(O)c2c(-c3ccc(-c4ccccc4O)cc3)csc2[nH]c1=O + Oc1cc(-c2nc(-c3ccccc3)[nH]c2-c2ccncc2)ccc1Cl [L779450] (first compound 2 µM, partner dose 0.2 µM)	42.3	124	110	15.9	70	–	125	93.8	83	89.9	59.3	112	82.5	68.1	153	180	172	116	–	40.7
O=S(=O)(c1ccccc1)N(CC(F)(F)F)c1ccc(C(O)(C(F)(F)F)C(F)(F)F)cc1 + Oc1cc(-c2nc(-c3ccccc3)[nH]c2-c2ccncc2)ccc1Cl [L779450] (first compound 1.4 µM, partner dose 0.2 µM)	119	266	55.6	143	146	–	144	125	101	62.7	54.4	84.3	144	115	50.8	114	179	78.7	–	97.1
